Measurements taken from publication PMC7617541.

Sequences of proteins named here, by UniProt entry; tags and fusion partners are left off. A change or cut given only in a name is not applied to a line headed by its entry.
UniProt P50502: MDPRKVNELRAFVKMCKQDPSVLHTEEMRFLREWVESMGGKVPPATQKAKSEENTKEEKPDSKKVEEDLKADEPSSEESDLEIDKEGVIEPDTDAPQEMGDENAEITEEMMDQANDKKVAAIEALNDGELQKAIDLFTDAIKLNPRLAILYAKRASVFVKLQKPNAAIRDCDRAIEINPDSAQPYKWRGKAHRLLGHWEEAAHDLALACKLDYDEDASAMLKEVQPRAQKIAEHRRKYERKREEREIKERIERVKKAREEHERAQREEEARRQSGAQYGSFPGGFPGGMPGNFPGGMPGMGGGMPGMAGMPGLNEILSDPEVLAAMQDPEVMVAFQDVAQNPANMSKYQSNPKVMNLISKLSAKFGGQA
UniProt P11142: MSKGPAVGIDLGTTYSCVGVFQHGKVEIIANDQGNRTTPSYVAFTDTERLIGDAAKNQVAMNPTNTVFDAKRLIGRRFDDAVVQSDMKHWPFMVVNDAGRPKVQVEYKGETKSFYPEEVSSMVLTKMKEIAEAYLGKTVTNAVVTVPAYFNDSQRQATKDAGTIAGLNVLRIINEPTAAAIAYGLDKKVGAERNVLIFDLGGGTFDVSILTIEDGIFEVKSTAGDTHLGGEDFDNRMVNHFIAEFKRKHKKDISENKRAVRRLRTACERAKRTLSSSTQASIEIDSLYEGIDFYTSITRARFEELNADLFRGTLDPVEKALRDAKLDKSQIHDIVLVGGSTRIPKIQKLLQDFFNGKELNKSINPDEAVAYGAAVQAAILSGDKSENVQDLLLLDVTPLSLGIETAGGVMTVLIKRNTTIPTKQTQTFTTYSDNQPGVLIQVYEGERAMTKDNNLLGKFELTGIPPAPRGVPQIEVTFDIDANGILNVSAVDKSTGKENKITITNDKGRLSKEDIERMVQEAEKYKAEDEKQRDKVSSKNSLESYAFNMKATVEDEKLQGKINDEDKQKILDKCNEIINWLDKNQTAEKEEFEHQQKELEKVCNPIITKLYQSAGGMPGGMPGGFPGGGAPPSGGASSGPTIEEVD

Assays:
∆STI-ST13-1xFLAG (human) = ∆STI-ST13-1xFLAG (human) (UniProt P50502); experiment: co-IP; FLAG-tagged St13 variants purified from lysates of transfected ∆ST13 HEK293 cells on FLAG-M2 resin (physiological or high salt), eluted with FLAG peptide, SDS-PAGE
∆TPR-ST13-1xFLAG (human) = ∆TPR-ST13-1xFLAG (human) (UniProt P50502); experiment: as above

Row | binding (∆STI-ST13-1xFLAG (human)) | binding (∆TPR-ST13-1xFLAG (human)) | Substance
1 | binds | no binding | Hsc70 (endogenous, HEK293 cells) (from UniProt P11142 1-646)
2 | binds | no binding | Stip1 (endogenous, HEK293 cells) (from UniProt P31948 1-543)

Results are given in words; binding and its absence hold for the method and conditions named. Binding seen in cells or lysates may run through a third protein. For some of these results: Binding calls can cover weak binding; strength is not graded here.
